Publication PMC6960117
These are yes or no findings as the source states them, for the method shown. Binding seen in cells or lysates may run through a third protein. Here binding means that the protein was enriched with, or labelled near, the bait; the list need not be complete.

Target: His-tagged Dpo41, putative tail fiber protein (ep3_0041) of phage vB_EcoM-ep3 (phage vB_EcoM-ep3)
Assay: affinity purification with mass spectrometry; His-tagged Dpo41 incubated with a cell lysate of E. coli strain O78-6; co-immunoprecipitate on silver stained SDS-polyacrylamide gel, bands sent for mass spectrometry; only the target purified

B1: Lpp of E. coli strain O78-6 (protein, UniProt P69776 21-78)
chain: CSSNAKIDQLSSDVQTLNAKVDQLSNDVNAMRSDVQAAKDDAARANQRLDNMATKYRK
Q: How did the binding turn out when B1 was run?
A: binds
